The list shows a part of the results.
Assays:
Test in all cases: log2 fold change, soluble protein after heating vs DMSO (PISA); higher = thermal stabilisation; K562 lysate, 10 uM; active = over 0.2 and 3.5 SD of the protein, either way, in both replicates (recomputed)
erlotinib = compound: C#Cc1cccc(Nc2ncnc3cc(OCCOC)c(OCCOC)cc23)c1 [erlotinib]
In short: (§1)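 K562 pellets were dounce-homogenised in PBS pH 7.4 with 1 mM MgCl2, and the crude extract at 1 mg/mL protein was treated with 10 μM compound for 30 min. Aliquots were heated for 3 min across 48°C-58°C, pooled, and brought to 0.5% NP-40 at 4°C; soluble protein was the supernatant after 21,000xg for 90 min. Soluble protein was quantified by TMTpro 16plex LC-MS/MS with channel sums equalised, and reported as log2 fold change in thermal stability against DMSO controls, with values from duplicates.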

Protein sequences, listed by entry. Tags and fused reporters are not part of them. Lines headed by an entry give the natural chain unless they say otherwise; changes in a name come on top.
UniProt Q4VC31: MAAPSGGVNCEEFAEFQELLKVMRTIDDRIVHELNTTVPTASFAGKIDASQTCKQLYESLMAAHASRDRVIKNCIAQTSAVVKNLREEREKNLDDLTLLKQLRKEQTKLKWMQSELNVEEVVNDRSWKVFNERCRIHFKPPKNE
UniProt P35520: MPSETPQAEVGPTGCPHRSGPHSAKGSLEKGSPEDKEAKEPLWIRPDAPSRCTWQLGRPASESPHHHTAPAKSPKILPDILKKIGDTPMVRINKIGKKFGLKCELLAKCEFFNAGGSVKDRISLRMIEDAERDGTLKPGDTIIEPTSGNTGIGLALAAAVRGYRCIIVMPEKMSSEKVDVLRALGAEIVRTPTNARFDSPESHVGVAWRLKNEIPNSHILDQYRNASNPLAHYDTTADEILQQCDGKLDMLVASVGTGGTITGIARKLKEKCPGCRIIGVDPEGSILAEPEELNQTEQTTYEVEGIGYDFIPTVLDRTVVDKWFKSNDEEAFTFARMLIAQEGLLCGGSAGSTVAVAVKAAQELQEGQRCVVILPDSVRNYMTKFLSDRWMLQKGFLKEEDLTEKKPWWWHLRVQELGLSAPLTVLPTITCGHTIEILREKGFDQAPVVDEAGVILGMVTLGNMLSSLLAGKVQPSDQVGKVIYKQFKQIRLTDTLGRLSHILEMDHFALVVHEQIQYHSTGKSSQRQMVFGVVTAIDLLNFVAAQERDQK
UniProt P08962, whole entry, looked up: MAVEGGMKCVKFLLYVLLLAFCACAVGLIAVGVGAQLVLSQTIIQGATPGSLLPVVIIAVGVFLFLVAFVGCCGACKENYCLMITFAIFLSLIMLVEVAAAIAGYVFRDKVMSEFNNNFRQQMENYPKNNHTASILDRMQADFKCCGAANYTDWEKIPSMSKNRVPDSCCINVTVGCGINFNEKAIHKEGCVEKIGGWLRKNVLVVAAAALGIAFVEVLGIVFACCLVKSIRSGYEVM
UniProt Q9P0B6: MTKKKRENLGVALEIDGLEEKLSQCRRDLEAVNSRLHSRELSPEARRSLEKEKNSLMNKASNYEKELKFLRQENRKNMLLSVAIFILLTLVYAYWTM
UniProt Q75N03: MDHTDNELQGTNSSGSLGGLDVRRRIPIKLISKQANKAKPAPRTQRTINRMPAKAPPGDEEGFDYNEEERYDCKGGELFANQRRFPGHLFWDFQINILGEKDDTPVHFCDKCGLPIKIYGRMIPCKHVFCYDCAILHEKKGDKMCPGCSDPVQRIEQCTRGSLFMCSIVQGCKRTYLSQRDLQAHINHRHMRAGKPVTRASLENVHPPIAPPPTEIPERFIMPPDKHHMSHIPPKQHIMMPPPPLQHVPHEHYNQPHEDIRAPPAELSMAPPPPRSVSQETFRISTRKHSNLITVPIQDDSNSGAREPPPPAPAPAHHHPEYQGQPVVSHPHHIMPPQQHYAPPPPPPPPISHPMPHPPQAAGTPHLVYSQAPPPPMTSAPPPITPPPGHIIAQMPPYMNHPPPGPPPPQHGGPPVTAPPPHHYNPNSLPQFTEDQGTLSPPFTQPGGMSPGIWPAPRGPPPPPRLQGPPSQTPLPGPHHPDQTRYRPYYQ
UniProt Q4G0S7: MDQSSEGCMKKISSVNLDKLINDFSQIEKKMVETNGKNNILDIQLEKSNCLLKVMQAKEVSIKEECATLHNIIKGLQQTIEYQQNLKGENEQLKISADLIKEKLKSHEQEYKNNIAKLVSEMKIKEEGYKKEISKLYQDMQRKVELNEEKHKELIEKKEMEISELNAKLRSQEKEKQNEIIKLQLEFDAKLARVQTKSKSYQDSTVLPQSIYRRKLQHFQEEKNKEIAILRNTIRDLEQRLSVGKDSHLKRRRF
UniProt Q8TD31: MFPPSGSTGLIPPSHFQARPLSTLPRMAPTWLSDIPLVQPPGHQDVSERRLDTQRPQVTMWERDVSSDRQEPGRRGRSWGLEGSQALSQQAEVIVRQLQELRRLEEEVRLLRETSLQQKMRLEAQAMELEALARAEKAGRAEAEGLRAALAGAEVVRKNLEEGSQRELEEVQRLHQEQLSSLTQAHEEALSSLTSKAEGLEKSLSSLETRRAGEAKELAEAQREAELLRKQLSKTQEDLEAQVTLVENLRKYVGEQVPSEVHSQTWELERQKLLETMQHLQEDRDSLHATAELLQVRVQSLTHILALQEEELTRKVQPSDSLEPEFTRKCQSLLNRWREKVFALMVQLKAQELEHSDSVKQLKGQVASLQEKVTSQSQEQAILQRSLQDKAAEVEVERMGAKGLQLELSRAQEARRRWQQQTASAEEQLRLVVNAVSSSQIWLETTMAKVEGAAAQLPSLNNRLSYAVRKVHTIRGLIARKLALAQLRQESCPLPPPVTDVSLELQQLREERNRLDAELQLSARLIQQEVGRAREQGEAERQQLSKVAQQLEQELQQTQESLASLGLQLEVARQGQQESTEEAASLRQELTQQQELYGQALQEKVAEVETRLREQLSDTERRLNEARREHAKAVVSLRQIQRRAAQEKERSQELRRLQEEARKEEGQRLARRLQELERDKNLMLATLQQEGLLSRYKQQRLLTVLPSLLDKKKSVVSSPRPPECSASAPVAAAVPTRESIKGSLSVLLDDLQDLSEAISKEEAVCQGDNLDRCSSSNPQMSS
UniProt Q96MW1: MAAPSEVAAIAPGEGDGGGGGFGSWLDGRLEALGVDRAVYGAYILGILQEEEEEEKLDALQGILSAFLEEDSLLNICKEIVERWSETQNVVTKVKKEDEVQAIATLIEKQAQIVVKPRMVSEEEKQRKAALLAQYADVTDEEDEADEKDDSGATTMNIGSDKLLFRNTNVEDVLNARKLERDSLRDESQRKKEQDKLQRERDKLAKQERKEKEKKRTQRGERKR
UniProt Q9NQ75: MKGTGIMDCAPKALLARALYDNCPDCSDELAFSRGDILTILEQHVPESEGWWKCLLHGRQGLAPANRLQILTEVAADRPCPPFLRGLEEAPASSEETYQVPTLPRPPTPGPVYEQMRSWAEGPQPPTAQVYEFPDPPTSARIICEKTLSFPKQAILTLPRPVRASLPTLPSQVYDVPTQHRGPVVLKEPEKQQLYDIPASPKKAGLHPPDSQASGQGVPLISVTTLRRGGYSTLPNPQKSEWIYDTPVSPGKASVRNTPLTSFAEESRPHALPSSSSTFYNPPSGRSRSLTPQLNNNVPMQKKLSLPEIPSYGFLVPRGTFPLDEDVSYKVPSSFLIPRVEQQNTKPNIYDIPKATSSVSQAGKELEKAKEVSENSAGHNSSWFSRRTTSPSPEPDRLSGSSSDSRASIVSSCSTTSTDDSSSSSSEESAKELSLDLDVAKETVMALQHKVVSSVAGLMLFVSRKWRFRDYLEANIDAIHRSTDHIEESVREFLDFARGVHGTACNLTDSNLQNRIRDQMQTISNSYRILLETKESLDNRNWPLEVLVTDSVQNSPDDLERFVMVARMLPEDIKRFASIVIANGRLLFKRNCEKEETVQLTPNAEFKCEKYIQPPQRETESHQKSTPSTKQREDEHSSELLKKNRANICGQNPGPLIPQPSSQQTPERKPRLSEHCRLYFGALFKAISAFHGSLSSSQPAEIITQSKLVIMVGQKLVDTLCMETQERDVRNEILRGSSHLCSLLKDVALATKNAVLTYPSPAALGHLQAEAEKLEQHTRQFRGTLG
UniProt P15529: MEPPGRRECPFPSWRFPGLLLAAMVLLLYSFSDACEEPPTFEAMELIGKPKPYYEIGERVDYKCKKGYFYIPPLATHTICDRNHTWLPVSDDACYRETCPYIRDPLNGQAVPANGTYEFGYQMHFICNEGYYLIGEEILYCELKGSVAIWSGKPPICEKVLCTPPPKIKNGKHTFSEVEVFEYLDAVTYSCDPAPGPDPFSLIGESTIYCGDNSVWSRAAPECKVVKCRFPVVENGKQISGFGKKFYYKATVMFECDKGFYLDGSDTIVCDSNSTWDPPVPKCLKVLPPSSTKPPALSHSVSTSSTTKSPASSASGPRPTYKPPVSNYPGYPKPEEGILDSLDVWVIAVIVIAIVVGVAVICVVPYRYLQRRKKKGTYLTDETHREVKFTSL

[1] = compound: C/C(=N\NC(=O)C1=CC(=CC=C1)S(=O)(=O)N2CCOCC2)/C3=C(C=CC(=C3)Cl)O
In short: as §1

[2] = compound: C1=CC(=CC=C1C2=NC3=C(N2)C=C(C=C3)C(=O)N)OC4=CC=C(C=C4)Cl
In short: as §1

[3] = compound: C1=CC2=C(C=CC(=C2)/C=C\3/C(=O)NC(=NCC4=CC=CS4)S3)N=C1
In short: as §1

[4] = compound: C1=CC2=NC=CN=C2C=C1/C=C/3\C(=O)NC(=O)S3
In short: as §1

[5] = compound: C1=CC=C(C=C1)C2=NC(=C(N2)C3=CC=NC=C3)C4=CC(=C(C=C4)Cl)O
In short: as §1

[6] = compound: C1=CC=C2C(=C1)C3=NNC4=CC=CC(=C43)C2=O
In short: as §1

[7] = compound: C1CCN(C1)C(=O)NC2=CC=CC(=C2)NC3=NC=C(C(=N3)NCCC4=CN=CN4)Br
In short: as §1

[8] = compound: C1CN(CCC1(CC2=CC=C(C=C2)Cl)N)C3=NC=NC4=C3C=CN4
In short: as §1

IRAK-1-4 Inhibitor I = compound: C1COCCN1CCN2C3=CC=CC=C3N=C2NC(=O)C4=CC(=CC=C4)[N+](=O)[O-] [IRAK-1-4 Inhibitor I]
In short: as §1

ibrutinib = compound: C=CC(=O)N1CCC[C@@H](n2nc(-c3ccc(Oc4ccccc4)cc3)c3c(N)ncnc32)C1 [ibrutinib]
In short: as §1

[9] = compound: CC(=O)c1cnc2ccc(-c3cc(Cl)c(O)c(Cl)c3)nc2c1N[C@H]1CC[C@H](CN(C)C)CC1
In short: as §1

ralimetinib = compound: CC(C)(C)Cn1c(N)nc2ccc(-c3[nH]c(C(C)(C)C)nc3-c3ccc(F)cc3)nc21 [ralimetinib]
In short: as §1

[10] = compound: CC(C)(O)CC(=O)NCCn1ccc2ncnc(Nc3ccc(Oc4cccc(C(F)(F)F)c4)c(Cl)c3)c21
In short: as §1

[11] = compound: CC(C)C1=C2N=C(C=C(N2N=C1)NCC3=CC=CC=C3)NCCCCCCN
In short: as §1

[12] = compound: CC1=C(C(CC(=O)N1)C2=CC=C(C=C2)C(F)(F)F)C(=O)NC3=C(C=C4C(=C3)C=NN4)F
In short: as §1

[13] = compound: CC1=C(C2=C(C=C1)C(=O)C3=CC=CC=C3N2CCCN)C
In short: as §1

[14] = compound: CC1=C(C=C(C=C1)NC(=O)C2=CC(=CC=C2)C(C)(C)C#N)NC3=CC4=C(C=C3)N=CN(C4=O)C
In short: as §1

[15] = compound: CC1=C(C=C(C=C1)NC(=O)C2=CC(=CC=C2)N(C)C)NC(=O)C3=CC=C(C=C3)O
In short: as §1

[16] = compound: CC1=CC=C(C=C1)SC2=C3C=C(SC3=CN=C2)C(=O)N
In short: as §1

Measured: log2 fold change

CCDC58 (UniProt Q4VC31)
inactive: erlotinib -0.073 | [1] -0.01 | [2] -0.035 | [3] 0.033 | [4] -0.019 | [5] 0.023 | [6] 0.072 | [7] 0.021 | [8] -0.037 | IRAK-1-4 Inhibitor I -0.023 | ibrutinib 0.044 | [9] -0.004 | ralimetinib -0.028 | [10] 0.048 | [11] 0.015 | [12] -0.026 | [13] 0.04 | [14] -0.052 | [15] 0.006 | [16] 0.019

CBS (UniProt P35520)
inactive: erlotinib -0.023 | [1] 0.012 | [2] -0.031 | [3] -0.017 | [4] -0.005 | [5] -0.004 | [6] 0.027 | [7] 0.012 | [8] -0.02 | IRAK-1-4 Inhibitor I -0.015 | ibrutinib 0.005 | [9] 0.012 | ralimetinib 0.01 | [10] 0.01 | [11] -0.011 | [12] 0.015 | [13] 0.015 | [14] -0.025 | [15] 0.003 | [16] 0.006

CD63 (UniProt P08962)
inactive: erlotinib -0.042 | [1] 0.026 | [2] -0.031 | [3] 0.047 | [4] 0.057 | [5] -0.114 | [6] -0.038 | [7] 0.018 | [8] -0.016 | IRAK-1-4 Inhibitor I 0.066 | ibrutinib -0.012 | [9] -0.063 | ralimetinib 0.078 | [10] -0.023 | [11] 0.017 | [12] 0.005 | [13] 0.049 | [14] 0 | [15] 0.039 | [16] 0.023

CCDC167 (UniProt Q9P0B6)
inactive: erlotinib -0.018 | [2] -0.205 | [4] -0.058 | ibrutinib 0.019 | [11] -0.044 | [12] 0.059 | [14] 0.047

CBLL1 (UniProt Q75N03)
inactive: erlotinib 0.055 | [1] -0.039 | [2] 0.112 | [3] -0.083 | [5] 0.001 | [6] -0.052 | [7] -0.019 | [8] 0.011 | IRAK-1-4 Inhibitor I -0.035 | [9] -0.022 | ralimetinib 0.042 | [10] 0.013 | [11] -0.068 | [12] -0.045 | [13] 0.029 | [14] 0.033 | [15] -0.008 | [16] -0.026

CCDC152 (UniProt Q4G0S7)
inactive: erlotinib -0.125 | [1] 0.013 | [2] 0.194 | [3] 0.174 | [6] 0.039 | [11] 0.159 | [13] -0.093 | [14] 0.024

CCHCR1 isoform 2 (UniProt Q8TD31)
inactive: erlotinib 0.078 | [1] 0.148 | [2] -0.103 | [3] 0.008 | [4] -0.051 | [6] -0.14 | [7] -0.027 | [8] -0.152 | ibrutinib 0.116 | [11] 0.122 | [12] -0.048 | [14] 0.03

CCDC43 isoform 2 (UniProt Q96MW1)
inactive: erlotinib 0.05 | [2] -0.04 | [11] -0.08

CASS4 (UniProt Q9NQ75)
inactive: erlotinib 0.041 | [1] -0.121 | [2] 0.022 | [3] -0.032 | [5] -0.084 | [6] 0.035 | [7] -0.158 | [8] 0.039 | IRAK-1-4 Inhibitor I -0.018 | ralimetinib -0.011 | [10] -0.114 | [11] 0.089 | [12] 0.104 | [13] 0.119 | [14] -0.073 | [15] 0.046

CD46 isoform 2 (UniProt P15529)
inactive: erlotinib -0.028 | [1] -0.022 | [2] 0.037 | [3] -0.003 | [4] -0.004 | [5] 0.007 | [6] 0.02 | [7] 0.001 | [8] -0.023 | IRAK-1-4 Inhibitor I 0.022 | ibrutinib 0.014 | [9] 0.004 | ralimetinib 0.048 | [10] 0.028 | [11] -0.018 | [12] -0.004 | [13] 0.03 | [14] 0.056 | [15] 0.004 | [16] 0.017

CD46 (UniProt P15529)
inactive: erlotinib -0.009 | [2] -0.045 | [11] -0.166 | [14] 0.055
